# Laboratory results taken from PubChem BioAssay AID602254 (Broad Institute, 2012).
# In all, about 1,000 compounds went through this assay and fewer than 10 were called active.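 How the source made its calls: active means fitted half-maximal concentration no higher than twice the top valid tested dose, with signal falling; inconclusive means flat curve with 30 to 70% inhibition, or poor fit; inactive means the rest.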 Some of the results follow. Results with a measured potency or affinity are listed apart.
# Molecular target: Golgi-associated PDZ and coiled-coil motif-containing protein (Homo sapiens) (UniProt Q9HD26)
# Test: CAL PDZ domain peptide-binding inhibitors, dose response, biochemical, fluorescence polarization, untagged CAL PDZ, cherry-pick, set 2 (AID 602254);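 further: 0% = DMSO neutral control and -100% = unlabeled peptide PRC23 positive control; more negative means stronger blocking of peptide binding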
# Conditions: Purified CAL PDZ, TMR peptide fluorescence polarization; at 60 µM (top of the series)
row,Structure (SMILES),"activity change, negative = inhibition"
1,O=C(CCCN1C(=O)c2ccccc2C1=O)NCCCn1ccnc1,inactive: -2.33%
2,O=C(O)c1ccc(/C=N/NC(=O)c2cc3ccccc3cc2O)cc1,inactive: 18.7%
3,COc1ccccc1NC(=O)CN1CCCCCC1,inactive: 4.63%
4,CC(=O)Nc1sc(NC(=O)c2ccc(C)cc2)nc1-c1cccs1,inactive: -1.3%
5,Cc1ccc(C(=O)N[C@H](C(=O)OCc2nnc(-c3ccccc3)o2)C(C)C)cc1,inactive: -6.77%
6,COc1cc(/C=N/Nc2nc3ccccc3s2)ccc1OC(=O)c1ccccc1F,inactive: 0.818%
7,Cc1cc(C(F)(F)F)n2ncc(-c3ccccc3)c2n1,inactive: -0.134%
8,NC(=O)NC(CC(=O)NNC(=O)c1ccccn1)c1ccccc1Cl (stereo not drawn),inactive: 1.01%
9,CCOc1ccc(NS(=O)(=O)c2ccc(NC(=O)c3ccccc3C(=O)O)cc2)cc1,inactive: 0.784%
10,COc1ccc(C)cc1NC(=O)Cn1c(=O)oc2ccccc21,inactive: -1.95%
11,O=C(Cc1c(C(=O)O)[nH]c2ccccc12)NCCN1CCN(c2cccc(Cl)c2)CC1,inactive: -1.9%
12,COc1ccc(OCC(=O)Nc2ccc3c(c2)nc(CN2CCCC2)n3C)cc1,inactive: 2.55%
13,COc1ccc(/C=N/NC(=O)c2ccc(CN3C(=O)c4cccc5cccc3c45)cc2)cc1O,inactive: 2.74%
14,CNC(=O)c1cn(-c2ccc(Cl)cc2)c(=O)c2ccccc12,inactive: 1.27%
15,CC(C)[C@H](NC(=O)c1ccc(Br)cc1)C(=O)NC1CCCCC1,inactive: -4.06%
16,COc1ccc(CN2CCNC(=O)C2CC(=O)NC2CCCCCCC2)cc1OC (stereo not drawn),inactive: 1.79%
17,COc1ccc(NC(=O)Nc2c[nH]c(=O)[nH]c2=O)cc1,inactive: -3.5%
18,NS(=O)(=O)c1ccc(CCNC(=O)COC(=O)C2CCC2)cc1,inactive: 1.83%
19,OC(CNCCc1ccc(Cl)cc1Cl)COc1ccccc1 (stereo not drawn),inactive: 0.253%
20,C=CCNC(=S)NCc1ccccc1OC,inactive: -1.48%
21,CSc1ccccc1C(=O)Nc1ccc2c(c1)CCC2,inactive: 1.61%
22,CN(C)CCOC(=O)c1sc2ccccc2c1Cl,inactive: 1.67%
23,O=C(NCc1ccccn1)c1cn(Cc2ccccc2)nn1,inactive: -3.03%
24,CN1CCN(CC(=O)NN2CC(=O)N(c3ccc(F)cc3)CC2=O)CC1,inactive: -1.12%

# A second format for some results above:
row | Structure (SMILES) | activity change, negative = inhibition
11 | O=C(Cc1c(C(=O)O)[nH]c2ccccc12)NCCN1CCN(c2cccc(Cl)c2)CC1 | inactive: -1.9%
12 | COc1ccc(OCC(=O)Nc2ccc3c(c2)nc(CN2CCCC2)n3C)cc1 | inactive: 2.55%
20 | C=CCNC(=S)NCc1ccccc1OC | inactive: -1.48%

# (list continues)

row,Structure (SMILES),"activity change, negative = inhibition"
1,OCC1(Cc2ccc(Cl)cc2)CCN(Cc2ccc(F)c(F)c2)CC1,inactive: 1.5%
2,O=C(c1ccc2nccnc2c1)N1CCCC(Nc2ccc(F)c(F)c2)C1 (stereo not drawn),inactive: -1.05%
3,O=C(c1ccc2c(c1)OCO2)C1CCCN(Cc2cc(F)ccc2-n2cccn2)C1 (stereo not drawn),inactive: -4.9%
4,COC(=O)c1ccc(OCc2nn[nH]n2)cc1,inactive: 1.45%
5,Fc1ccc(Cn2cc(C(=S)N3CCOCC3)c3ccccc32)cc1,inactive: 0.943%
6,O=S(=O)(c1ccccc1)N(CC(O)COc1ccccc1)c1ccccc1 (stereo not drawn),inactive: 0.464%
7,N#CCNC(=O)c1nn2c(C(F)(F)F)cc(-c3ccccc3)nc2c1Br,inactive: 0.777%
8,CCOC(=O)c1ccc(NC(=O)c2ccc(NC(=O)C3CCCO3)cc2)cc1 (stereo not drawn),inactive: 1.45%
9,Cc1ccc(-c2nn(C)c(=O)c3ccccc23)cc1CN1CCCCC1,inactive: 1.08%
10,CC1Cc2ccccc2N1C(=O)COC(=O)c1cccc(Br)c1 (stereo not drawn),inactive: -1.16%
11,CCC(C)(C(=O)NC1CCCCC1)N(C)C(=O)c1ccccn1 (stereo not drawn),inactive: 0.953%
12,COc1ccc(Nc2ncnc3sc(-c4ccccc4)cc23)c(OC)c1,inactive: 0.882%
13,CCOc1ncccc1C(=O)OCC(=O)N(CC(C)C)C1CCS(=O)(=O)C1 (stereo not drawn),inactive: 0.111%
14,Cc1cc(N2CCN(c3ccccc3)CC2)nc2ccccc12,inactive: -0.474%
15,CC1CN(C(=S)Nc2ccccc2)N(c2ccccc2)C1 (stereo not drawn),inactive: 2.31%
16,COCCCNC(=S)N/N=C/c1ccc(OC)c(Br)c1,inactive: -1.02%
17,CC(C)(C(=O)Nc1nccs1)c1ccccc1,inactive: 0.362%
18,CC(C)c1cc(C(=O)N2CCCC(N3CCN(c4ccc(F)cc4)CC3)C2)no1 (stereo not drawn),inactive: -2.37%
19,COc1ccc(CCNC(=O)c2cc3c(F)cccc3s2)cc1OC,inactive: 3.5%
20,COc1cc(C(=O)NCC2CCCCC2)cc(OC)c1OC,inactive: -1.25%
21,CCN(Cc1ccc(N(C)C)cc1)C(C)C(=O)Nc1ccc(S(=O)(=O)N2CCCC2)cc1 (stereo not drawn),inactive: -11.2%
22,COc1ccc(CN2C(=O)c3cccnc3C2=O)cc1S(=O)(=O)N(C)c1cccc(C)c1,inactive: -0.429%
23,CN1CCC(OC(=O)COc2ccc(F)cc2)CC1,inactive: -12.9%
24,Cc1cccc(NC(=O)c2ccccc2SCc2ccc(F)cc2)n1,inactive: 1.74%
